Drawing on paper doi:10.1101/2024.11.24.624999, this text covers binding for three molecules.

Chains of the proteins cited; added tags and fusions are not shown.
UniProt Q84T08: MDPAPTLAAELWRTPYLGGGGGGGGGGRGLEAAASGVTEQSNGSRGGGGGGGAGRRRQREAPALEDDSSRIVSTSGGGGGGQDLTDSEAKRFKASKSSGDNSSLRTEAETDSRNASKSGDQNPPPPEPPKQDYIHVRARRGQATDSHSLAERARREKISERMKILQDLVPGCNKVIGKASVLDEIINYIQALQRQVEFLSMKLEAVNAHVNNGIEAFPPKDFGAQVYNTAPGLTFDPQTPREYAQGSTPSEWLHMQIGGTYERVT
UniProt Q69WS3: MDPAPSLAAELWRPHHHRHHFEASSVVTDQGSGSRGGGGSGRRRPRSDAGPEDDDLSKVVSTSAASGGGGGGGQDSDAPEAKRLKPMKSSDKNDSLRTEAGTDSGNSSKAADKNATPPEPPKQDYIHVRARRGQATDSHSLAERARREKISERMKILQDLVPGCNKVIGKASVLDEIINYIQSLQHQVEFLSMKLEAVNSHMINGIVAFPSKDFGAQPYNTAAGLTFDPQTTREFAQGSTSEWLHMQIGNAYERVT

Assay in all cases: two-hybrid
The target in test [1] is OsbHLH089 (rice (Oryza sativa)) (UniProt Q84T08).
Test [2] deals with OsbHLH094 (rice (Oryza sativa)) (UniProt Q69WS3).
Test [3] deals with OsbHLH089 (rice (Oryza sativa)) (UniProt Q84T08). The source holds these as a separate data set.
Test [4] concerns the target OsbHLH094 (rice (Oryza sativa)) (UniProt Q69WS3). This is another data set of the same source.

Like-named read-outs stand apart in the source and are kept apart here. These are yes or no findings as the source states them, for the method shown. Some results given as binding are weak or reduced against the parent protein; the word gives no strength.

As for OsbHLH089 (from UniProt Q84T08 1-265), the binding entry in test [1] and in test [2] was “binds” throughout.
As to OsbHLH094 (from UniProt Q69WS3 1-256), in test [2], the binding entry is recorded as “binds”.

B1: OsSLR1 (protein, UniProt Q7G7J6 1-625)
chain: MKREYQEAGGSSGGGSSADMGSCKDKVMAGAAGEEEDVDELLAALGYKVRSSDMADVAQKLEQLEMAMGMGGVSAPGAADDGFVSHLATDTVHYNPSDLSSWVESMLSELNAPLPPIPPAPPAARHASTSSTVTGGGGSGFFELPAAADSSSSTYALRPISLPVVATADPSAADSARDTKRMRTGGGSTSSSSSSSSSLGGGASRGSVVEAAPPATQGAAAANAPAVPVVVVDTQEAGIRLVHALLACAEAVQQENFAAAEALVKQIPTLAASQGGAMRKVAAYFGEALARRVYRFRPADSTLLDAAFADLLHAHFYESCPYLKFAHFTANQAILEAFAGCHRVHVVDFGIKQGMQWPALLQALALRPGGPPSFRLTGVGPPQPDETDALQQVGWKLAQFAHTIRVDFQYRGLVAATLADLEPFMLQPEGEADANEEPEVIAVNSVFELHRLLAQPGALEKVLGTVHAVRPRIVTVVEQEANHNSGSFLDRFTESLHYYSTMFDSLEGGSSGQAELSPPAAGGGGGTDQVMSEVYLGRQICNVVACEGAERTERHETLGQWRNRLGRAGFEPVHLGSNAYKQASTLLALFAGGDGYRVEEKEGCLTLGWHTRPLIATSAWRVAAA
Turning to B1, the binding result in test [3] and in test [4] was “binds” throughout.
